PubChem BioAssay AID743454 | Peter MacCallum Cancer Centre – 2014
Purpose: 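Knock-downs lowering viability or raising caspase 3/7 activity in vorinostat-treated resistant cells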 (primary screen). Cell system: human HCT116-VR colon cancer cells, selected for vorinostat resistance. Reagent: siRNA pool against human genes, 40 nM siRNA pool. Duration: vorinostat for 24 h, read-out about 72 h after transfection. Treatment: vorinostat at 2.5 µM final. Measurement: 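Cell viability by CellTiter-Fluor and caspase 3/7 activity by luminescence, each scaled to mock wells per plate, duplicates averaged, then robust z-scored over all plates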. Reading the numbers: viability robust z-score: higher = more viable cells than screen typical; caspase robust z-score: higher = more caspase 3/7 activity than screen typical. Hit rule: 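Hits are knock-downs in viability class RV1/RV2 or caspase class CA1/CA2, excluding ones that killed cells in the no-drug cell-count arm; hits then retested with single siRNAs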.
Here is a random part of about 18,000 reagents tested. 450 of them (2.5%) count as active. 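Single biological run; no consistent viability z cut-off exists, so the class columns, not z-scores, define the calls.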

gene	viability hit class	caspase hit class	viability robust z-score	caspase robust z-score	Call
DEF6	no change	no change	0.99	0.01	inactive
RRM1	no change	CA2 (caspase activation)	-3.45	7.44	active
MCEMP1	no change	no change	-2.73	-0.18	inactive
TCF4	no change	no change	0.8	-0.66	inactive
POU3F1	no change	no change	-0.68	-0.8	inactive
EIF2B2	RV2 (reduced viability)	no change	-3.25	3.09	active
PLPP6	no change	no change	0.23	3.23	inactive
CNTN3	no change	no change	1.37	1.54	inactive
TENT2	no change	no change	0.04	-0.65	inactive
NEK9	no change	no change	-1.68	-0.29	inactive
MAFF	no change	no change	1.49	-0.06	inactive
ZNF227	no change	no change	1.98	-0.68	inactive
MAPK9	no change	no change	-0.33	-0.62	inactive
RALA	no change	no change	-0.02	-0.44	inactive
RTN4IP1	no change	no change	0.82	3.09	inactive
CEP68	no change	no change	-0.76	-0.68	inactive
CCDC190	no change	no change	0.03	-0.91	inactive
OR52D1	no change	no change	0.05	-0.7	inactive
DAAM1	no change	no change	-0.36	2.34	inactive
PKLR	no change	CA1 (caspase activation)	-0.74	6.45	active
C3AR1	no change	no change	0.18	-0.6	inactive
SPAM1	no change	no change	0.88	-0.92	inactive
HSFY1	no change	no change	0.45	-0.85	inactive
FAM177A1	no change	no change	-2.21	-0.26	inactive
AQP1	no change	no change	0.34	0.2	inactive

Continued; the last 3 above are carried over.
gene	viability hit class	caspase hit class	viability robust z-score	caspase robust z-score	Call
HSFY1	no change	no change	0.45	-0.85	inactive
FAM177A1	no change	no change	-2.21	-0.26	inactive
AQP1	no change	no change	0.34	0.2	inactive
TMEM69	no change	no change	-0.17	0.65	inactive
ZNF226	no change	no change	0.71	3.35	inactive
FLRT3	no change	no change	0.77	0.04	inactive
OR7C1	no change	no change	0.1	-0.12	inactive
RBBP6	no change	no change	1.52	0.88	inactive
RNF122	RV2 (reduced viability)	no change	-4.22	1.41	active
CRISP2	no change	no change	0.68	-1.07	inactive
HNRNPA3	no change	no change	-2.46	-1.09	inactive
CTF1	no change	no change	0.02	-1.01	inactive
HIKESHI	no change	no change	-0.74	-0.44	inactive
ADAMTS10	no change	no change	-1	4.16	inactive
TMEM82	no change	no change	-0.52	1.8	inactive
TDRP	no change	CA2 (caspase activation)	-1.5	5.15	active
SLC47A2	no change	no change	-1.05	0.12	inactive
WNT8A	no change	no change	-1.09	1.29	inactive
RBM46	no change	no change	2.18	0.04	inactive
BLTP2	no change	no change	0.5	0.72	inactive
TAPBPL	no change	no change	-2	-0.58	inactive
BCLAF3	no change	no change	-0.12	-0.72	inactive
KRTAP19-3	no change	no change	-0.2	-0.52	inactive
CACNA1H	no change	no change	-0.2	0.82	inactive
LRRC19	no change	no change	-1.03	-0.82	inactive
SUPT5H	no change	no change	-1.48	1.48	inactive
NTS	no change	no change	0.76	-0.01	inactive
TRAM1L1	no change	no change	-1.57	1.6	inactive
DAPP1	no change	no change	-0.25	0.06	inactive
TADA3	no change	no change	-0.44	2.44	inactive
XPO1	no change	no change	-2.65	-0.42	inactive
CLDN11	no change	no change	1.16	-0.16	inactive
FRMD1	no change	no change	1.37	2.34	inactive
ADH1C	no change	no change	0.48	-0.53	inactive
RAD51C	no change	no change	-1.13	-0.33	inactive
LRP10	no change	no change	0.04	-0.48	inactive
VNN1	no change	no change	-0.22	0.41	inactive
GDF15	no change	no change	-0.7	2.53	inactive
MTSS1	no change	no change	-1.28	-1.09	inactive
TTC33	RV2 (reduced viability)	no change	-3.2	-1.43	active
NUBP2	no change	no change	1.34	-0.1	inactive
UGT1A1	no change	no change	0.24	0.76	inactive
PDK2	no change	no change	0.02	0.6	inactive
KIFC3	no change	no change	-0.88	-0.38	inactive
TSNAXIP1	no change	no change	-0.3	-0.62	inactive
GPR63	no change	no change	-0.44	0.34	inactive
P2RX2	no change	CA1 (caspase activation)	-0.8	5.17	active
RFPL1	no change	no change	-0.59	-0.24	inactive
COLQ	no change	no change	-0.51	-0.43	inactive
METTL13	no change	no change	-0.31	0.12	inactive
CDV3	no change	no change	-0.69	-0.69	inactive
